Measurements reported in PubChem BioAssay AID602196 (INSERM, 2012)

Screen: 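Knock-downs that protect lung cancer cells from cisplatin or sensitise them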
Cells: human A549 lung cancer cells
Reagents: siRNA pair against human genes
Duration: 48 h transfection before cisplatin; time from cisplatin to read-out not stated
Conditions: cisplatin at a dose killing half of control-siRNA cells; exact dose and duration not given
Measured: 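Shift in cisplatin death relative to control siRNA, from -50 (all cells die) to +50 (no cells die); siRNAs harmful on their own scored 0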
Direction: two-siRNA summed score (-2 to +2): higher = both siRNAs protect from cisplatin killing; -2 means both sensitise; mean protection from cisplatin (shift in death): higher = protection from cisplatin killing
Active means: 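siRNAs harmful alone (LDH or WST-1) get 0; others get +1 for less and -1 for more cisplatin killing; genes are active when the two siRNAs give the same sign, summing to ±2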
Meaning of the calls: active = both siRNAs shift cisplatin killing the same way; inactive = no consistent shift, or siRNA harmful alone
In all, the deposit lists about 23,000 reagents; shown is an unselected part. 455 of all reagents (2%) count as active. 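Active includes both protection and sensitisation; some change values fall well beyond the stated -50 to +50 range.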 Reagents against one gene are numbered here. Not all columns of the deposit are shown. Reagent sequences are not shown. Not stated in the record: the amount of reagent.

gene	reagent	two-siRNA summed score (-2 to +2)	mean protection from cisplatin (shift in death) (%)	Outcome
OR8G1	1	1	4.5	inactive
LAMTOR1	1	0	0	inactive
KCNAB2	1	0	-4.6	inactive
HYAL3	1	0	5.3	inactive
ZNF540	1	1	11.9	inactive
SPANXN2	1	0	3.8	inactive
LOC390637	1	0	7.4	inactive
KCNMB1	1	-1	-6.7	inactive
KCTD8	1	0	6.9	inactive
PDSS1	1	0	-2.3	inactive
PHF11	1	0	-3.2	inactive
CTDSPL2	1	0	-6.3	inactive
TSR2	1	0	7.9	inactive
LOC441953	1	0	16.9	inactive
LOC401210	1	1	13	inactive
EIF4E2	1	0	8.6	inactive
CHP1	1	2	22.8	active
ZNF761	1	0	7.4	inactive
LEAP2	1	0	2	inactive
ZBTB20	1	0	6.2	inactive
DNMBP	1	0	16.8	inactive
LMAN2	1	0	5	inactive
LOC151760	1	0	10.3	inactive
MAP4K5	1	0	7.9	inactive
SAP18P2	1	0	8.6	inactive
ST3GAL3	1	0	2.2	inactive
TRIAP1	1	0	-2.7	inactive
TTPA	1	0	16.1	inactive
LOC440277	1	1	14.9	inactive
LRRN2	1	-1	12.1	inactive
LOC389413	1	1	16.4	inactive

Only “mean protection from cisplatin (shift in death) (%)” (6 entries from above):
ST3GAL3: 2.2
TRIAP1: -2.7
TTPA: 16.1
LOC440277: 14.9
LRRN2: 12.1
LOC389413: 16.4

Additional reagents:
gene	reagent	two-siRNA summed score (-2 to +2)	mean protection from cisplatin (shift in death) (%)	Outcome
LOC440744	1	0	13.3	inactive
ZDHHC22	1	0	5.1	inactive
GJA10	1	0	-9.8	inactive
LOC388564	1	0	11.7	inactive
LOC389667	1	0	20.6	inactive
CAMK1D	1	0	-0.4	inactive
TCP11L2	1	0	4	inactive
CDC16	1	0	-0.4	inactive
LOC441030	1	0	1.1	inactive
MYCBPAP	1	0	13.5	inactive
CAVIN1	1	0	12.8	inactive
ALAS2	1	1	11.2	inactive
ADGRL4	1	0	6.4	inactive
ADGRL4	2	0	10.7	inactive
LOC343629	1	0	9	inactive
CWF19L1	1	0	10.1	inactive
FIBP	1	0	10.3	inactive
COA1	1	0	-3.8	inactive
TRAPPC12	1	0	0.4	inactive
OS9	1	-1	-6.6	inactive
OS9	2	0	7.2	inactive
LOC387859	1	0	7.6	inactive
PPP2R1A	1	0	-5.5	inactive
ZNF770	1	0	10.5	inactive
IGF2-AS	1	0	8.4	inactive
LOC390529	1	1	12.9	inactive
